# Reference: publication PMC7819943, “Rice protein-binding microarrays: a tool to detect cis-acting elements near promoter regions in rice”
# Chains of the proteins cited; added tags and fusions are not shown.
# UniProt Q0JBA9, entry or part of it: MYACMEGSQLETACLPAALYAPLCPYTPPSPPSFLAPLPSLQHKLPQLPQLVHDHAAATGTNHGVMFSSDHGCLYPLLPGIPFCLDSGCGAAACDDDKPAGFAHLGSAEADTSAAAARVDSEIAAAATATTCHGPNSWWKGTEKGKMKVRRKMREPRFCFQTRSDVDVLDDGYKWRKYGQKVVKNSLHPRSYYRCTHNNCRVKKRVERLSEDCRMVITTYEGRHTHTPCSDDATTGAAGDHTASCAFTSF
# The other results are listed elsewhere or left out.
# Target: OsWRKY34 (Oryza sativa, UniProt Q0JBA9 1-250)
# Experiment: protein-binding microarray (RPBM); PBS, 2% BSA, 51.3 ng/ul salmon testes DNA, 50 uM zinc acetate, 200 nM TF, 25 C, 1 h; high values mean tight binding
# Conditions: protein: recombinant; tags: N-terminal polyhistidine and DsRed monomer fusion (pET32a); label: CyDye5-dUTP incorporated in the synthesized complementary strand; 3' TTTTT single-stranded linker to array surface; dsDNA, one strand shown
# Outline: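 The binding signal for each feature is its fluorescence intensity in arbitrary units. An Axon 4000B scanner was used to read a custom Agilent array that had been made double-stranded with Cy5-dUTP primer extension, blocked with 2% BSA, incubated at 25 °C for 1 h with 200 nM protein in PBS, 2% BSA, salmon testes DNA and 50 µM zinc acetate, and washed. The protein was an N-terminal polyhistidine–DsRed transcription factor fusion from E. coli BL21-CodonPlus, purified on Ni–NTA.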
row,Sequence,binding signal
1,CTCCCATCTCGTCCTCGCTTCCTGCTGGAGCTCGGAACTCCGGAGTCACCTAGTGCAG,8620 fluorescence intensity (a.u.)
2,CATAAACGACGCCGCATCAGACAAACTAAACGCGACAATACGGAGTCACCTAGTGCAG,8100 fluorescence intensity (a.u.)
3,GACCCGGTCCTGATCCTACCCCGCCGCGCGGCCTCTTCCTCGGAGTCACCTAGTGCAG,10200 fluorescence intensity (a.u.)
4,AATCTGTCACCTCGCAGCTTCACGCTTCCACGCACACAGACGGAGTCACCTAGTGCAG,11400 fluorescence intensity (a.u.)
5,TTTGATCTTGTGGTGGTTTGGGTGATCGGTGGCGATGGGGCGGAGTCACCTAGTGCAG,11000 fluorescence intensity (a.u.)
6,CCTTGCCTAGTCGCTGCTGCTGTTTATAAATTTCAACTCCCGGAGTCACCTAGTGCAG,8810 fluorescence intensity (a.u.)
7,CTGGCGCTTCCGCTTCTTCTCCGGCGACGGCGCGGCGGCGCGGAGTCACCTAGTGCAG,9260 fluorescence intensity (a.u.)
8,ACTTAGGTTATGGTTGGGACCCACTTGTCAGTGTCAGTTCCGGAGTCACCTAGTGCAG,10700 fluorescence intensity (a.u.)
9,TGCGTTTCCCGTCAGCCCTGTCACGCCGCCGCCGGTCGCCCGGAGTCACCTAGTGCAG,12000 fluorescence intensity (a.u.)
10,TGAGTCGTGTCCCATCCCACCTGCGCACCCAGCCCGGTAACGGAGTCACCTAGTGCAG,8210 fluorescence intensity (a.u.)
11,ACATATTGGTTGACTTTTTGCCGGGTCCACCGATTGGCACCGGAGTCACCTAGTGCAG,17700 fluorescence intensity (a.u.)
12,CCTCGCGCTACTCACCATCGCGACCGCGTTCCTCCTCACACGGAGTCACCTAGTGCAG,10400 fluorescence intensity (a.u.)
13,ACCATATCTCTGTCTTGTCTCCCTTTCACATGTCACCTCTCGGAGTCACCTAGTGCAG,8380 fluorescence intensity (a.u.)
14,CTGTTCCGCCACCTACCACCGAGCCGTTGTCTCCCATGACCGGAGTCACCTAGTGCAG,10100 fluorescence intensity (a.u.)
15,ATTTTACAGGGTTGTACCGTTTGATACGATCGTCGTTCCACGGAGTCACCTAGTGCAG,9750 fluorescence intensity (a.u.)
16,CTCCGCTCGCTCTCCACCGCTCGCCGCGCACGCCTCACCGCGGAGTCACCTAGTGCAG,9920 fluorescence intensity (a.u.)
17,CCTCTGTCGCCGCCATCGCCGGTCACTCTTCCACCTGCACCGGAGTCACCTAGTGCAG,12900 fluorescence intensity (a.u.)
18,GTTCCCTTACCGCACTGTAAGTTTGTTAATTATGCTCCTACGGAGTCACCTAGTGCAG,8950 fluorescence intensity (a.u.)
19,TTGACCGCCCTGACTGCCCCGTACCAGCGACAGCTTTTCCCGGAGTCACCTAGTGCAG,10200 fluorescence intensity (a.u.)
20,TATCCCTTGTCCTCGCAACCCCGCTTCCTTCTCTCCTCTCCGGAGTCACCTAGTGCAG,10500 fluorescence intensity (a.u.)
21,CCCTGCCGCCGGCGCAGGCGCCGCGCCTTTCTCGGTGCTCCGGAGTCACCTAGTGCAG,10100 fluorescence intensity (a.u.)
22,TTCAAAATGTTTGATACCGTTGACTTTTTAGCACATTTTGCGGAGTCACCTAGTGCAG,29400 fluorescence intensity (a.u.)
23,CAACATTTAATACAACATTTAGTTTTACTGTGCATTGCTTCGGAGTCACCTAGTGCAG,8670 fluorescence intensity (a.u.)

# 2 entries picked at random from those above, as already listed:
row,Sequence,binding signal
11,ACATATTGGTTGACTTTTTGCCGGGTCCACCGATTGGCACCGGAGTCACCTAGTGCAG,17700 fluorescence intensity (a.u.)
23,CAACATTTAATACAACATTTAGTTTTACTGTGCATTGCTTCGGAGTCACCTAGTGCAG,8670 fluorescence intensity (a.u.)
